Values quoted from earlier work, collected in patent US20130274174A1, “THERAPEUTIC COMBINATION OF DAPTOMYCIN AND PROTEIN SYNTHESIS INHIBITOR ANTIBIOTIC, AND METHODS OF USE” (priority 2011, published 2013).
For at least one compound, name, drawing or mass did not settle the structure.

Tested on: S. aureus and enterococci
Settings: Entenza et al. 2010; cited from earlier work

## CO[C@H]1/C=C/O[C@@]2(C)Oc3c(C)c(O)c4c(O)c(c(/C=N/N5CCN(C)CC5)c(O)c4c3C2=O)NC(=O)/C(C)=C\C=C\[C@H](C)[C@H](O)[C@@H](C)[C@@H](O)[C@@H](C)[C@H](OC(C)=O)[C@@H]1C [rifampicin]
  increase of MIC in parallel to the increase in the daptomycin MIC: 2-32 fold
